Results are given in words; binding and its absence hold for the method and conditions named. Binding seen in cells or lysates may run through a third protein. These calls come from enrichment with a bait or labelling near it, and not all partners need be listed.
B1: L3MBTL3 (protein, UniProt Q96JM7 1-780)
chain: MTESASSTSGQEFDVFSVMDWKDGVGTLPGSDLKFRVNEFGALEVITDENEMENVKKATATTTWMVPTAQEAPTSPPSSRPVFPPAYWTSPPGCPTVFSEKTGMPFRLKDPVKVEGLQFCENCCQYGNVDECLSGGNYCSQNCARHIKDKDQKEERDVEEDNEEEDPKCSRKKKPKLSLKADTKEDGEERDDEMENKQDVRILRGSQRARRKRRGDSAVLKQGLPPKGKKAWCWASYLEEEKAVAVPAKLFKEHQSFPYNKNGFKVGMKLEGVDPEHQSVYCVLTVAEVCGYRIKLHFDGYSDCYDFWVNADALDIHPVGWCEKTGHKLHPPKGYKEEEFNWQTYLKTCKAQAAPKSLFENQNITVIPSGFRVGMKLEAVDKKNPSFICVATVTDMVDNRFLVHFDNWDESYDYWCEASSPHIHPVGWCKEHRRTLITPPGYPNVKHFSWDKYLEETNSLPAPARAFKVKPPHGFQKKMKLEVVDKRNPMFIRVATVADTDDHRVKVHFDGWNNCYDYWIDADSPDIHPVGWCSKTGHPLQPPLSPLELMEASEHGGCSTPGCKGIGHFKRARHLGPHSAANCPYSEINLNKDRIFPDRLSGEMPPASPSFPRNKRTDANESSSSPEIRDQHADDVKEDFEERTESEMRTSHEARGAREEPTVQQAQRRSAVFLSFKSPIPCLPLRWEQQSKLLPTVAGIPASKVSKWSTDEVSEFIQSLPGCEEHGKVFKDEQIDGEAFLLMTQTDIVKIMSIKLGPALKIFNSILMFKAAEKNSHNEL
B2: zinc finger protein ZNF512B (protein, UniProt Q96KM6 1-892)
chain: MTDPFCVGGRRLPGSSKSGPGKDGSRKEVRLPMLHDPPKMGMPVVRGGQTVPGQAPLCFDPGSPASDKTEGKKKGRPKAENQALRDIPLSLMNDWKDEFKAHSRVKCPNSGCWLEFPSIYGLKYHYQRCQGGAISDRLAFPCPFCEAAFTSKTQLEKHRIWNHMDRPLPASKPGPISRPVTISRPVGVSKPIGVSKPVTIGKPVGVSKPIGISKPVSVGRPMPVTKAIPVTRPVPVTKPVTVSRPMPVTKAMPVTKPITVTKSVPVTKPVPVTKPITVTKLVTVTKPVPVTKPVTVSRPIVVSKPVTVSRPIAISRHTPPCKMVLLTRSENKAPRATGRNSGKKRAADSLDTCPIPPKQARPENGEYGPSSMGQSSAFQLSADTSSGSLSPGSRPSGGMEALKAAGPASPPEEDPERTKHRRKQKTPKKFTGEQPSISGTFGLKGLVKAEDKARVHRSKKQEGPGPEDARKKVPAAPITVSKEAPAPVAHPAPGGPEEQWQRAIHERGEAVCPTCNVVTRKTLVGLKKHMEVCQKLQDALKCQHCRKQFKSKAGLNYHTMAEHSAKPSDAEASEGGEQEERERLRKVLKQMGRLRCPQEGCGAAFSSLMGYQYHQRRCGKPPCEVDSPSFPCTHCGKTYRSKAGHDYHVRSEHTAPPPEEPTDKSPEAEDPLGVERTPSGRVRRTSAQVAVFHLQEIAEDELARDWTKRRMKDDLVPETARLNYTRPGLPTLNPQLLEAWKNEVKEKGHVNCPNDCCEAIYSSVSGLKAHLASCSKGAHLAGKYRCLLCPKEFSSESGVKYHILKTHAENWFRTSADPPPKHRSQDSLVPKKEKKKNLAGGKKRGRKPKERTPEEPVAKLPPRRDDWPPGCRDKGARGSTGRKVGVSKAPEK
B3: HMG20B (protein, UniProt Q9P0W2 1-317)
chain: MSHGPKQPGAAAAPAGGKAPGQHGGFVVTVKQERGEGPRAGEKGSHEEEPVKKRGWPKGKKRKKILPNGPKAPVTGYVRFLNERREQIRTRHPDLPFPEITKMLGAEWSKLQPTEKQRYLDEAEREKQQYMKELRAYQQSEAYKMCTEKIQEKKIKKEDSSSGLMNTLLNGHKGGDCDGFSTFDVPIFTEEFLDQNKAREAELRRLRKMNVAFEEQNAVLQRHTQSMSSARERLEQELALEERRTLALQQQLQAVRQALTASFASLPVPGTGETPTLGTLDFYMARLHGAIERDPAQHEKLIVRIKEILAQVASEHL
B4: GSE1 (protein, UniProt Q14687 1-1217)
chain: MKGMSHEPKSPSLGMLSTATRTTATVNPLTPSPLNGALVPSGSPATSSALSAQAAPSSSFAAALRKLAKQAEEPRGSSLSSESSPVSSPATNHSSPASTPKRVPMGPIIVPPGGHSVPSTPPVVTIAPTKTVNGVWRSESRQDAGSRSSSGGRERLIVEPPLPQEKAGGPAIPSHLLSTPYPFGLSPSSVVQDSRFPPLNLQRPVHHVVPPSTVTEDYLRSFRPYHTTDDLRMSSLPPLGLDPATAAAYYHPSYLAPHPFPHPAFRMDDSYCLSALRSPFYPIPTPGSLPPLHPSAMHLHLSGVRYPPELSHSSLAALHSERMSGLSAERLQMDEELRREREREREREREREADREREKEREREREKEREQEKEREREKERERELERQREQRAREKELLAAKALEPSFLPVAELHGLRGHATEERGKPSEQLTPTRAEKLKDAGLQAPKPVQHPLHPVPTPHHTVPSLISNHGIFSLPSSSAATALLIQRTNEEEKWLARQRRLRQEKEDRQSQVSEFRQQVLEQHLDMGRPPVPAEAEHRPESTTRPGPNRHEPGGRDPPQHFGGPPPLISPKPQLHAAPTALWNPVSLMDNTLETRRAESHSLHSHPAAFEPSRQAAVPLVKVERVFCPEKAEEGPRKREPAPLDKYQPPPPPPREGGSLEHQPFLPGPGPFLAELEKSTQTILGQQRASLPQAATFGELSGPLKPGSPYRPPVPRAPDPAYIYDEFLQQRRRLVSKLDLEERRRREAQEKGYYYDLDDSYDESDEEEVRAHLRCVAEQPPLKLDTSSEKLEFLQLFGLTTQQQKEELVAQKRRKRRRMLRERSPSPPTIQSKRQTPSPRLALSTRYSPDEMNNSPNFEEKKKFLTIFNLTHISAEKRKDKERLVEMLRAMKQKALSAAVADSLTNSPRDSPAVSLSEPATQQASLDVEKPVGVAASLSDIPKAAEPGKLEQVRPQELSRVQELAPASGEKARLSEAPGGKKSLSMLHYIRGAAPKDIPVPLSHSTNGKSKPWEPFVAEEFAHQFHESVLQSTQKALQKHKGSVAVLSAEQNHKVDTSVHYNIPELQSSSRAPPPQHNGQQEPPTARKGPPTQELDRDSEEEEEEDDEDGEDEEEVPKRKWQGIEAVFEAYQEHIEEQNLERQVLQTQCRRLEARHYSLSLTAEQLSHSVAELRSQKQKMVSERERLQAELDHLRKCLALPAMHWPRGYLKGYPR
B5: BEND3 (protein, UniProt Q5T5X7 1-828)
chain: MNSTEFTEDVEEVLKSITVKVETEAEDAALDCSVNSRTSEKHSVDSVLTALQDSSKRKQLVSDGLLDSVPGVKRRRLIPEALLAGMRNRENSSPCQGNGEQAGRGRSLGNVWPGEEEPCNDATTPSYKKPLYGISHKIMEKKNPPSGDLLNVYELFEKANASNSPSSLRLLNEPQKRDCGSTGAGTDNDPNIYFLIQKMFYMLNTLTSNMSQLHSKVDLLSLEVSRIKKQVSPTEMVAKFQPPPEYQLTAAELKQIVDQSLSGGDLACRLLVQLFPELFSDVDFSRGCSACGFAAKRKLESLHLQLIRNYVEVYYPSVKDTAVWQAECLPQLNDFFSRFWAQREMEDSQPSGQVASFFEAEQVDPGHFLDNKDQEEALSLDRSSTIASDHVVDTQDLTEFLDEASSPGEFAVFLLHRLFPELFDHRKLGEQYSCYGDGGKQELDPQRLQIIRNYTEIYFPDMQEEEAWLQQCAQRINDELEGLGLDAGSEGDPPRDDCYDSSSLPDDISVVKVEDSFEGERPGRRSKKIWLVPIDFDKLEIPQPDFEVPGADCLLSKEQLRSIYESSLSIGNFASRLLVHLFPELFTHENLRKQYNCSGSLGKKQLDPSRIKLIRHYVQLLYPRAKNDRVWTLEFVGKLDERCRRRDTEQRRSYQQQRKVHVPGPECRDLTSYAINPERFREEFEGPPLPPERSSKDFCKIPLDELVVPSPDFPVPSPYLLSDKEVREIVQQSLSVGNFAARLLVRLFPELFTAENLRLQYNHSGACNKKQLDPTRLRLIRHYVEAVYPVEKMEEVWHYECIPSIDERCRRPNRKKCDILKKAKKVEK

Chains of the proteins cited; added tags and fusions are not shown.
UniProt Q9NP66: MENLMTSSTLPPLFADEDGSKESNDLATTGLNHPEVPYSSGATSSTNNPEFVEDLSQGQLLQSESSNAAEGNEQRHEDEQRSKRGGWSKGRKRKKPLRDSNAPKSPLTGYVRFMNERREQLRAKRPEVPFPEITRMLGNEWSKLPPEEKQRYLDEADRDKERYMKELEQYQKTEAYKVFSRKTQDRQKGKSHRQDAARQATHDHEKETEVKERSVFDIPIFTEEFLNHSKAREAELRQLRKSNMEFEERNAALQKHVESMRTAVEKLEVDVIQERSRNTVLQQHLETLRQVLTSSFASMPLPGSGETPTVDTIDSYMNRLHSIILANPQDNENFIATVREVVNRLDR
UniProt Q96BD5: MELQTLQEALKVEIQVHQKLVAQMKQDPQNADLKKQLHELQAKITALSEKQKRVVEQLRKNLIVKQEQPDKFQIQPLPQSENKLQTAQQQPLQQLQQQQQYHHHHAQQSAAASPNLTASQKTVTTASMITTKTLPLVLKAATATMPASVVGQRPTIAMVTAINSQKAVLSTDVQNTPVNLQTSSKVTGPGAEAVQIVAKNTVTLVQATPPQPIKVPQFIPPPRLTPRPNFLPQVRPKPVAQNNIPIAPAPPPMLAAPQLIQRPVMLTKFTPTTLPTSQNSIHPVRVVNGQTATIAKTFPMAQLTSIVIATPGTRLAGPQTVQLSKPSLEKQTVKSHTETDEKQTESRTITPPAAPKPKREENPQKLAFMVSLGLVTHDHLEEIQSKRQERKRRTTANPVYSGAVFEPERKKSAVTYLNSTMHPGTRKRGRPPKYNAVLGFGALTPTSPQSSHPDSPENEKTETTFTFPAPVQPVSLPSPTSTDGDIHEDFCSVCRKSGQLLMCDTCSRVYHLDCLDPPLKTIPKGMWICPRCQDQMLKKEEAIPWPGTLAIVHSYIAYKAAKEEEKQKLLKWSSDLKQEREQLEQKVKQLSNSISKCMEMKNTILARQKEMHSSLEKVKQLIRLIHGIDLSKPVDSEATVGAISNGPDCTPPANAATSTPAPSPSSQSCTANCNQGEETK
UniProt Q9UKL0: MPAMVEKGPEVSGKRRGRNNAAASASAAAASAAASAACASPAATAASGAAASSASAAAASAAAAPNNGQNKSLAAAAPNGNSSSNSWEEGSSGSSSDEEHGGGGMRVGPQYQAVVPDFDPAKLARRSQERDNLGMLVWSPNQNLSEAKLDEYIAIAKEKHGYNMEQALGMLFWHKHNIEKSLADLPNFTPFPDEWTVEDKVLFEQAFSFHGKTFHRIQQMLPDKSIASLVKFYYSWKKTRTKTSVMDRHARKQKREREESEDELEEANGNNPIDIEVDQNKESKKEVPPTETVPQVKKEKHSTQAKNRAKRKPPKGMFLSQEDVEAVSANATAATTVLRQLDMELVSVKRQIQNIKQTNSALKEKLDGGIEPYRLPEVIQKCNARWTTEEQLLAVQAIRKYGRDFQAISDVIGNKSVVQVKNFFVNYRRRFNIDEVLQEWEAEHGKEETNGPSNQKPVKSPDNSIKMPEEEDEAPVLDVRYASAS
UniProt Q7Z5J4: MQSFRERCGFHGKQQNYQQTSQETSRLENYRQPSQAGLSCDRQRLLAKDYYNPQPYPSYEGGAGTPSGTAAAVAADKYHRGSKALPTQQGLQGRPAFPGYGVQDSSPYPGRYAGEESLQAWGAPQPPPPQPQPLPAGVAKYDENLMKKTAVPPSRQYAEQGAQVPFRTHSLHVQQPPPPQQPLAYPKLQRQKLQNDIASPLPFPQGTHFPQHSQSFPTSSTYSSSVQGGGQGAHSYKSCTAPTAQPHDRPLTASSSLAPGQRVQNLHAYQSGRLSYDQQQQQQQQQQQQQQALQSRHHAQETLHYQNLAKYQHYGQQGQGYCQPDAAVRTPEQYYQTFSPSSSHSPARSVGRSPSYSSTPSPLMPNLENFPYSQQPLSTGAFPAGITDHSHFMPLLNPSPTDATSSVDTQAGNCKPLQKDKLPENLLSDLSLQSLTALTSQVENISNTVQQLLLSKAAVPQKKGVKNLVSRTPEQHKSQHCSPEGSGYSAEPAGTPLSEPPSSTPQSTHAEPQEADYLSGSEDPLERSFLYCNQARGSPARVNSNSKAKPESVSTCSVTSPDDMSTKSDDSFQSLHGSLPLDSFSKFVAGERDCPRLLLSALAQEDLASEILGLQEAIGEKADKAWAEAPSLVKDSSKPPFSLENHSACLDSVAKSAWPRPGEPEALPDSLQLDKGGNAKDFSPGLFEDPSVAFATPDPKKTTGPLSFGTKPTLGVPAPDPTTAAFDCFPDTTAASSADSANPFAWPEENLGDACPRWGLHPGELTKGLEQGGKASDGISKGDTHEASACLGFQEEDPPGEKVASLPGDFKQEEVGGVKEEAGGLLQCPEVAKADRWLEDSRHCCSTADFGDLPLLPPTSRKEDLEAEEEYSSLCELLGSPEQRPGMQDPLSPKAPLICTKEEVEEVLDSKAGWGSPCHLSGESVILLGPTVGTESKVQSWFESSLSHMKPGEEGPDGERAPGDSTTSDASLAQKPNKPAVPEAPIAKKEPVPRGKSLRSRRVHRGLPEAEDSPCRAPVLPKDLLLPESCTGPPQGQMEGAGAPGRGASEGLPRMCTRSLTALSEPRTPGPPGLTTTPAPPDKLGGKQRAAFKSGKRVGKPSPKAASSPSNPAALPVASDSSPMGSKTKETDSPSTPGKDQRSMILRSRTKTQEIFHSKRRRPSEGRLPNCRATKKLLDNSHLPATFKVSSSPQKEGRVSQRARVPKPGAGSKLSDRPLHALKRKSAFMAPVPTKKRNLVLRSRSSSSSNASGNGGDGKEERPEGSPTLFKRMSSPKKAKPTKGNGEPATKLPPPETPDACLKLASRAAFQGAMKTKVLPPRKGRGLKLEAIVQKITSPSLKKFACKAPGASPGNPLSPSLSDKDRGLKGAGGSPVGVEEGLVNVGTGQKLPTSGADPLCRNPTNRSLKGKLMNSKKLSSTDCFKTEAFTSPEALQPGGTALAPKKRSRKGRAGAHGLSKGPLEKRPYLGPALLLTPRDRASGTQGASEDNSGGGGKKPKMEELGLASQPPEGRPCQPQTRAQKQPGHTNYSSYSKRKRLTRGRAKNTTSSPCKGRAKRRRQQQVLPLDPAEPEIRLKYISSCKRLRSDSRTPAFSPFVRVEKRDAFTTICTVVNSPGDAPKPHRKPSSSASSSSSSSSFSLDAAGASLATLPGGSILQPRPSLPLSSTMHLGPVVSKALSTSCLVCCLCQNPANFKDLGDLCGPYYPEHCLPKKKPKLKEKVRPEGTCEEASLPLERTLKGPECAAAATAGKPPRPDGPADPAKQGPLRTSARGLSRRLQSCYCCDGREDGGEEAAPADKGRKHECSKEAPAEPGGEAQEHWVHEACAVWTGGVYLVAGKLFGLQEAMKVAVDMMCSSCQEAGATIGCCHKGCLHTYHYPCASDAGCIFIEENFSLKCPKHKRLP
UniProt Q9UGU0: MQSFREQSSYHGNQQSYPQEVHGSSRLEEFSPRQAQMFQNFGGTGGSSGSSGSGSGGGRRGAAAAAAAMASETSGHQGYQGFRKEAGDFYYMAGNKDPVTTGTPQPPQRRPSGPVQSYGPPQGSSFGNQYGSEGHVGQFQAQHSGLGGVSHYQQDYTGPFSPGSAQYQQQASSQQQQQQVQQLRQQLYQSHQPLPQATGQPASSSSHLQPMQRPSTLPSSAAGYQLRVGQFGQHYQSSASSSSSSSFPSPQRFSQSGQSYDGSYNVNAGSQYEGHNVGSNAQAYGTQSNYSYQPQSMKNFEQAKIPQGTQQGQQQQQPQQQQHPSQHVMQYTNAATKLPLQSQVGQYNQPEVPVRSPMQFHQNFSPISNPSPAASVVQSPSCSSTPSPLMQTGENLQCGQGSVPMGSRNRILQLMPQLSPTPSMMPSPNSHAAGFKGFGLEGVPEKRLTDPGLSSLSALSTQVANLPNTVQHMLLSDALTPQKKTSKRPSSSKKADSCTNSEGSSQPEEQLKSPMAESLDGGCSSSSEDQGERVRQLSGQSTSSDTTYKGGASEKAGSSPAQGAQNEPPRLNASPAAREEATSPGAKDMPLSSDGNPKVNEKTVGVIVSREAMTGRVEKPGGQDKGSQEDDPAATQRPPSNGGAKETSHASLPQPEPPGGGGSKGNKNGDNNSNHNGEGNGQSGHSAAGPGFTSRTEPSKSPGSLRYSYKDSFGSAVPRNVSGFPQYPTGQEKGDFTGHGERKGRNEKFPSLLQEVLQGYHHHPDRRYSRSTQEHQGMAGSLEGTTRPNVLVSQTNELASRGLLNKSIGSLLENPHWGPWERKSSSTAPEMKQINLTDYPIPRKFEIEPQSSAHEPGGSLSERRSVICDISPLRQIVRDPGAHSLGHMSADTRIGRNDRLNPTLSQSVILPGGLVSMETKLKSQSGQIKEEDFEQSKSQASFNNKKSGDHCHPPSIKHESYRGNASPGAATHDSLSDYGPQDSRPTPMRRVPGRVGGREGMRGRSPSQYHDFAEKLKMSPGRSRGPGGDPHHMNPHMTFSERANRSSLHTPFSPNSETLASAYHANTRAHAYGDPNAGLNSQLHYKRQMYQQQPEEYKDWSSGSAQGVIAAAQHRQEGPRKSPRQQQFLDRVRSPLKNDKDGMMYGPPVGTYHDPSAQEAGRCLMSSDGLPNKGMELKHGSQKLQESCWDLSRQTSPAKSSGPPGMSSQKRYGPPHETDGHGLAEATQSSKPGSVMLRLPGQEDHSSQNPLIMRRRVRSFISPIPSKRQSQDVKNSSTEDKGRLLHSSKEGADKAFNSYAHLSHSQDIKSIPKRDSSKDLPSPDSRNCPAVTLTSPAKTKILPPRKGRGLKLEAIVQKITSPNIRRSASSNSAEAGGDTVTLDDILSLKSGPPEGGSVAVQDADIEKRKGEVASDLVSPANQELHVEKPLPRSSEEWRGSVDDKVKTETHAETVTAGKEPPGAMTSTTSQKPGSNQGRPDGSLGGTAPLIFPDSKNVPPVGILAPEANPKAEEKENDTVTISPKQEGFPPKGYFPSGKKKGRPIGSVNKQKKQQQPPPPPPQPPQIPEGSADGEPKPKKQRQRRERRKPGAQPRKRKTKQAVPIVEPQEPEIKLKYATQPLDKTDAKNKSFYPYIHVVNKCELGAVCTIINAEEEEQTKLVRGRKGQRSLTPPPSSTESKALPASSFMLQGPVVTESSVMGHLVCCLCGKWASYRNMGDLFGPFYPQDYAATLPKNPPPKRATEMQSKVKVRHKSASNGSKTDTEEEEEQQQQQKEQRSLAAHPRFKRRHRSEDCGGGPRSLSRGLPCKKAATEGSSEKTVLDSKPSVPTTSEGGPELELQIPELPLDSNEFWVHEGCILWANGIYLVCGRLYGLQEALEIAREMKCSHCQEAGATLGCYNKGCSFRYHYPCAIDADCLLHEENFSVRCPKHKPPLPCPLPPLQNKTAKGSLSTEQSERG

biological target: GFP-HMG20A (N-terminally GFP-tagged High Mobility Box 20A), stably expressed in HeLa Kyoto cells (human) (UniProt Q9NP66); assay: affinity purification with mass spectrometry

binding, binds:
PHF21A (from UniProt Q96BD5 1-680)
RCOR1 (from UniProt Q9UKL0 1-485)
RCOR3 (from UniProt Q9P2K3 1-495)
Retinoic Acid Induced 1 (RAI1) (from UniProt Q7Z5J4 1-1906)
Transcription Factor 20 (TCF20) (from UniProt Q9UGU0 1-1960)
B1
B2
B3
B4
B5

Source: article doi:10.1101/2022.05.04.490592
